Measured values reported in the supplement of paper PMC4862054.
Small differences around the control level are noise.

Assays:
Assay in all cases: normalised response (% of control), CellTox Green; higher = less cell death (100 = DMSO, 0 = benzethonium chloride kill control)
Settings in all cases: incubation time: 72 h
DU-4475 [1] = system: DU-4475
Method: (§1)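 DSRT, 72 h incubation, CellTox Green / CellTiter-Glo readout. Signal is normalised to DMSO and benzethonium chloride controls. Value is the normalised response at the lowest tested concentration.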

HCC1599 [2] = system: HCC1599
Method: as §1

HCC1937 [3] = system: HCC1937
Method: as §1

CAL-148 [4] = system: CAL-148
Method: as §1

CAL-85-1 [5] = system: CAL-85-1
Method: as §1

CAL-51 [6] = system: CAL-51
Method: as §1

CAL-120 [7] = system: CAL-120
Method: as §1

BT-549 [8] = system: BT-549
Method: as §1

MDA-MB-453 [9] = system: MDA-MB-453
Method: as §1

HCC1143 [10] = system: HCC1143
Method: as §1

MDA-MB-468 [11] = system: MDA-MB-468
Method: as §1

Hs578T [12] = system: Hs578T
Method: as §1

BT-474 [13] = system: BT-474
Method: as §1

HDQ-P1 [14] = system: HDQ-P1
Method: as §1

MCF-10A [15] = system: MCF-10A
Method: as §1

MFM-223 [16] = system: MFM-223
Method: as §1

MDA-MB-231 [17] = system: MDA-MB-231
Method: as §1

DU-4475 [18] = system: DU-4475; remark: listed apart in the source
Method: (§2)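 DSRT, 72 h incubation, CellTox Green / CellTiter-Glo readout. Signal is normalised to DMSO and benzethonium chloride controls. Value is the normalised response at dose 2.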

HCC1599 [19] = system: HCC1599; remark: listed apart in the source
Method: as §2

HCC1937 [20] = system: HCC1937; remark: listed apart in the source
Method: as §2

CAL-148 [21] = system: CAL-148; remark: listed apart in the source
Method: as §2

CAL-85-1 [22] = system: CAL-85-1; remark: listed apart in the source
Method: as §2

MDA-MB-231 [23] = system: MDA-MB-231; remark: listed apart in the source
Method: as §2

CAL-51 [24] = system: CAL-51; remark: listed apart in the source
Method: as §2

CAL-120 [25] = system: CAL-120; remark: listed apart in the source
Method: as §2

MDA-MB-436 = system: MDA-MB-436
Method: as §2

BT-549 [26] = system: BT-549; remark: listed apart in the source
Method: as §2

MDA-MB-453 [27] = system: MDA-MB-453; remark: listed apart in the source
Method: as §2

HCC1143 [28] = system: HCC1143; remark: listed apart in the source
Method: as §2

MDA-MB-468 [29] = system: MDA-MB-468; remark: listed apart in the source
Method: as §2

Hs578T [30] = system: Hs578T; remark: listed apart in the source
Method: as §2

BT-474 [31] = system: BT-474; remark: listed apart in the source
Method: as §2

HDQ-P1 [32] = system: HDQ-P1; remark: listed apart in the source
Method: as §2

MCF-10A [33] = system: MCF-10A; remark: listed apart in the source
Method: as §2

MFM-223 [34] = system: MFM-223; remark: listed apart in the source
Method: as §2

For CNC(=O)c1ccc(N2C(=S)N(c3ccc(C#N)c(C(F)(F)F)c3)C(=O)C2(C)C)cc1F [Enzalutamide] (1 nM), the normalised response (DU-4475 [1]) was 106%, the normalised response (HCC1599 [2]) was 111% and the normalised response (HCC1937 [3]) was 73.4%. It also gave a normalised response (CAL-148 [4]) of 102%, a normalised response (CAL-85-1 [5]) of 100% and a normalised response (CAL-51 [6]) of 116%. The normalised response (CAL-120 [7]) was 102%, the normalised response (BT-549 [8]) was 98.2% and the normalised response (MDA-MB-453 [9]) was 102%. The normalised response (HCC1143 [10]) was 124%, the normalised response (MDA-MB-468 [11]) was 89.1% and the normalised response (Hs578T [12]) was 92.4%. For the same molecule, the normalised response (BT-474 [13]) was 102%, the normalised response (HDQ-P1 [14]) was 93.2% and the normalised response (MCF-10A [15]) was 93.4%. It also gave a normalised response (MFM-223 [16]) of 107%.
For CO[C@@H](C(=O)N1Cc2[nH]nc(NC(=O)c3ccc(N4CCN(C)CC4)cc3)c2C1)c1ccccc1 [Danusertib] (1 nM), the normalised response (DU-4475 [1]) was 100%, the normalised response (HCC1599 [2]) was 98.9% and the normalised response (HCC1937 [3]) was 75.8%. The normalised response (CAL-148 [4]) was 99.8%, the normalised response (CAL-85-1 [5]) was 111% and the normalised response (MDA-MB-231 [17]) was 104%. For the same molecule, the normalised response (CAL-51 [6]) was 120%, the normalised response (CAL-120 [7]) was 99.8% and the normalised response (BT-549 [8]) was 101%. For the same molecule, the normalised response (MDA-MB-453 [9]) was 108%, the normalised response (HCC1143 [10]) was 94.3% and the normalised response (MDA-MB-468 [11]) was 124%. For the same molecule, the normalised response (BT-474 [13]) was 98.9%, the normalised response (MCF-10A [15]) was 104% and the normalised response (MFM-223 [16]) was 99.5%.
For O=P1(NCCCl)OCCCN1CCCl (centres undefined) [Ifosfamide] (1 nM), the normalised response (DU-4475 [1]) was 97%, the normalised response (HCC1599 [2]) was 101% and the normalised response (HCC1937 [3]) was 81.9%. It also gave a normalised response (CAL-148 [4]) of 92.8%, a normalised response (CAL-85-1 [5]) of 103% and a normalised response (MDA-MB-231 [17]) of 92.4%. The normalised response (CAL-51 [6]) was 91.3%, the normalised response (CAL-120 [7]) was 102% and the normalised response (BT-549 [8]) was 105%. The normalised response (MDA-MB-453 [9]) was 100%, the normalised response (HCC1143 [10]) was 83% and the normalised response (MDA-MB-468 [11]) was 122%. For the same molecule, the normalised response (BT-474 [13]) was 96.3% and the normalised response (MFM-223 [16]) was 54.1%.
Molecule Cc1ccc([N+](=O)[O-])cc1S(=O)(=O)N(C)/N=C/c1cnc2ccc(Br)cn12 [PIK-75] (1 nM) has a normalised response (DU-4475 [1]) of 98.4%, a normalised response (HCC1599 [2]) of 93.1% and a normalised response (HCC1937 [3]) of 83.1%. The normalised response (CAL-148 [4]) was 99.7%, the normalised response (CAL-85-1 [5]) was 114% and the normalised response (MDA-MB-231 [17]) was 107%. It also gave a normalised response (CAL-51 [6]) of 74.3%, a normalised response (CAL-120 [7]) of 98.2% and a normalised response (BT-549 [8]) of 87.4%. For the same molecule, the normalised response (MDA-MB-453 [9]) was 96.2%, the normalised response (HCC1143 [10]) was 104% and the normalised response (MDA-MB-468 [11]) was 107%. It also gave a normalised response (BT-474 [13]) of 99.1%, a normalised response (HDQ-P1 [14]) of 94.7% and a normalised response (MCF-10A [15]) of 101%. For the same molecule, the normalised response (MFM-223 [16]) was 79.8%.
With NC(=O)c1cccc2cn(-c3ccc([C@@H]4CCCNC4)cc3)nc12 [MK-4827] (10 nM) the normalised response (DU-4475 [18]) was 107%, the normalised response (HCC1599 [19]) was 116% and the normalised response (HCC1937 [20]) was 84.8%. It also gave a normalised response (CAL-148 [21]) of 92.2%, a normalised response (CAL-85-1 [22]) of 95.6% and a normalised response (MDA-MB-231 [23]) of 69.5%. For the same molecule, the normalised response (CAL-51 [24]) was 112%, the normalised response (CAL-120 [25]) was 103% and the normalised response (MDA-MB-436) was 94.2%. The normalised response (BT-549 [26]) was 96.5%, the normalised response (MDA-MB-453 [27]) was 107% and the normalised response (HCC1143 [28]) was 111%. The normalised response (MDA-MB-468 [29]) was 99.6%, the normalised response (Hs578T [30]) was 116% and the normalised response (BT-474 [31]) was 95.8%. The normalised response (HDQ-P1 [32]) was 62%, the normalised response (MCF-10A [33]) was 112% and the normalised response (MFM-223 [34]) was 103%.
